PubChem BioAssay AID1224826 | NIAID | 2016
Test: 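Regulators of Tlr4 signalling leading to Tnf-alpha expression in macrophages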 (primary screen). Cell system: RAW264.7 G9 macrophages from mouse bearing reporters for p65 (GFP) and the Tnf promoter (mCherry). Reagents: siRNA pool against mouse genes, 100 nM. Time to read-out: 16 h of LPS stimulation, after 2 days of siRNA transfection. Challenge: bacterial lipopolysaccharide (Salmonella minnesota R595), 10 ng/ml. Detection: 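Nuclear mCherry signal of the Tnf promoter reporter measured by imaging after background removal, scaled to each plate median and turned into robust z-scores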. Scale: Tnf reporter robust z-score: higher = stronger Tnf promoter reporter signal after LPS. Call rule: 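Called active when robust z-score is at most -1.3, matching the median of the Tlr4 knock-down control, or over 3; control wells and wells with under 50 cells never active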. Calls: active = Tnf reporter clearly lowered or raised; inactive = no clear change in Tnf reporter.
The whole screen tested about 17,000 reagents; shown is an unselected part. About 1,110 of them (6.6%) were called active. 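Active means lowered or raised reporter signal; replicate intensities are raw and not normalised per plate.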 Not all columns of the deposit are shown.

gene	PubChem SID	Tnf reporter robust z-score	fewer than 50 cells in well	Call
Pikfyve	SID315468515	-0.08	enough cells in well	inactive
Mgat2	SID315478135	-0.04	enough cells in well	inactive
Eid2	SID315481846	0.65	enough cells in well	inactive
Lin9	SID315474580	-0.17	enough cells in well	inactive
Kcnab3	SID315467567	0.45	enough cells in well	inactive
E130308A19Rik	SID315478773		fewer than 50 cells per well; well left out of calls	inactive
Kdm4a	SID315478806	-0.13	enough cells in well	inactive
Ocln	SID315468284	0.07	enough cells in well	inactive
Fchsd1	SID315481062	2.49	enough cells in well	inactive
Scgb3a2	SID315477086	0.51	enough cells in well	inactive
Ankrd69	SID315474164		fewer than 50 cells per well; well left out of calls	inactive
Sncg	SID315469356	-0.88	enough cells in well	inactive
Serpina1a	SID315469404	-0.35	enough cells in well	inactive
Gal3st2	SID315481781	-1.7	enough cells in well	active
Prpsap1	SID315473213	2.29	enough cells in well	inactive
Scn3b	SID315479236	-1.67	enough cells in well	active
Zfp319	SID315475669	0.37	enough cells in well	inactive
Prss1	SID315477000	0.95	enough cells in well	inactive
Sf3b4	SID315476631		fewer than 50 cells per well; well left out of calls	inactive
Dmbt1	SID315466132	2.2	enough cells in well	inactive
Mtmr3	SID315474932	-1.71	enough cells in well	active
Krtap6-5	SID315473544	1.1	enough cells in well	inactive
Ube2e3	SID315469901	0.41	enough cells in well	inactive
Pxk	SID315478209	-0.08	enough cells in well	inactive
Evi2b	SID315478061	-0.09	enough cells in well	inactive
Ehd1	SID315466465	0.13	enough cells in well	inactive
H2-M10.1	SID315467112	1.94	enough cells in well	inactive
Nme2	SID315468191	-0.84	enough cells in well	inactive
Map3k21	SID315479209	1.75	enough cells in well	inactive
Krt88	SID315472362	-0.59	enough cells in well	inactive
Zfp27	SID315470107	-0.42	enough cells in well	inactive
E230012M21	SID315482035	2.65	enough cells in well	inactive
Ndufa1	SID315471230	-0.59	enough cells in well	inactive
Pcdhga11	SID315475953	2.47	enough cells in well	inactive
Mtmr1	SID315471049	0.57	enough cells in well	inactive
Anapc1	SID315467867	-0.15	enough cells in well	inactive
A830073O21Rik	SID315481270	-0.21	enough cells in well	inactive
Abhd14a	SID315473594	3.15	enough cells in well	active
Parn	SID315474848	1.71	enough cells in well	inactive
Ndufa13	SID315472888	0.32	enough cells in well	inactive

Records listed so far whose gene name begins with Z or z (2):
gene	PubChem SID	Tnf reporter robust z-score	fewer than 50 cells in well	Call
Zfp319	SID315475669	0.37	enough cells in well	inactive
Zfp27	SID315470107	-0.42	enough cells in well	inactive
